Results are given in words; binding and its absence hold for the method and conditions named. Binding seen in cells or lysates may run through a third protein. Some results given as binding are weak or reduced against the parent protein; the word gives no strength.

Protein sequences, listed by entry. Tags and fused reporters are not part of them.
UniProt Q16665: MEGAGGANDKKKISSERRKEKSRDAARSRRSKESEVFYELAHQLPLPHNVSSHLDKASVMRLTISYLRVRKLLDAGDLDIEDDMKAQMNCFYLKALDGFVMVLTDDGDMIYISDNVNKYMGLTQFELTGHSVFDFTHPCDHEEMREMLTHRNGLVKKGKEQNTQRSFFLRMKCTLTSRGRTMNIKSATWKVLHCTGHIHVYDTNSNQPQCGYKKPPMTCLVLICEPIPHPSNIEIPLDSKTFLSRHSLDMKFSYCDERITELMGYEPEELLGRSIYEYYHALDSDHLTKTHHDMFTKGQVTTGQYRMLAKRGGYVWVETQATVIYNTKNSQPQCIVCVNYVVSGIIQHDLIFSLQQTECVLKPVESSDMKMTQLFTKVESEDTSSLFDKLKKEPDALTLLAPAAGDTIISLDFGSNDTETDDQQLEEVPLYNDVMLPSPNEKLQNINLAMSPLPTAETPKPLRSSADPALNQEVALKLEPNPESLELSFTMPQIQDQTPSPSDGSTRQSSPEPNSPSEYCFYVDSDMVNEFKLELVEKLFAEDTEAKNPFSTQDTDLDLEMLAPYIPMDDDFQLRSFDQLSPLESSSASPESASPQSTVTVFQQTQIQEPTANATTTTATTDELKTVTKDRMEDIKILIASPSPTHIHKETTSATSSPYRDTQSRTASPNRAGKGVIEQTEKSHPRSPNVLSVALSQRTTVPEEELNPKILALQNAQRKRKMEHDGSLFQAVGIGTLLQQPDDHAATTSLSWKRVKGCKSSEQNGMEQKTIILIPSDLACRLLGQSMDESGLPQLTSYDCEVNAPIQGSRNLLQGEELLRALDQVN

We go through one substance from PMC11334498.

The target in experiment [1] is T1, Neurexophilin 4 (NXPH4) (human (endogenous in human CRC cell lines)) (UniProt O95158).
T1 sequence: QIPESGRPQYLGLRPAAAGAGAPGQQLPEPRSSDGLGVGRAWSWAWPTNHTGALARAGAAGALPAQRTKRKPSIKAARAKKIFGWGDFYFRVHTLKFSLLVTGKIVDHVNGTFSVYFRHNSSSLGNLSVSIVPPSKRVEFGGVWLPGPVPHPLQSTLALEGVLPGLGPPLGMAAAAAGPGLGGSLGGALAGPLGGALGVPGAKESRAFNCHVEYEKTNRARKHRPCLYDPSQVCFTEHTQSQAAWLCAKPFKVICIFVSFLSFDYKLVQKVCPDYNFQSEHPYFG
As to the kind of experiment: co-IP; Co-IP Kit (Bersin); cell lysate with protease inhibitors incubated overnight at 4 °C with beads conjugated to anti-HIF1A/PHD4/NXPH4/IgG antibodies; western blot; some panels after lentiviral NXPH4 knockdown or overexpression. (In western blotting, separated proteins are transferred to a membrane and probed.)

The target of experiment [2] is T2, PHD4 (prolyl 4-hydroxylase, transmembrane), coded by P4HTM (human (endogenous in human CRC cell lines)) (UniProt Q9NXG6).
T2 sequence: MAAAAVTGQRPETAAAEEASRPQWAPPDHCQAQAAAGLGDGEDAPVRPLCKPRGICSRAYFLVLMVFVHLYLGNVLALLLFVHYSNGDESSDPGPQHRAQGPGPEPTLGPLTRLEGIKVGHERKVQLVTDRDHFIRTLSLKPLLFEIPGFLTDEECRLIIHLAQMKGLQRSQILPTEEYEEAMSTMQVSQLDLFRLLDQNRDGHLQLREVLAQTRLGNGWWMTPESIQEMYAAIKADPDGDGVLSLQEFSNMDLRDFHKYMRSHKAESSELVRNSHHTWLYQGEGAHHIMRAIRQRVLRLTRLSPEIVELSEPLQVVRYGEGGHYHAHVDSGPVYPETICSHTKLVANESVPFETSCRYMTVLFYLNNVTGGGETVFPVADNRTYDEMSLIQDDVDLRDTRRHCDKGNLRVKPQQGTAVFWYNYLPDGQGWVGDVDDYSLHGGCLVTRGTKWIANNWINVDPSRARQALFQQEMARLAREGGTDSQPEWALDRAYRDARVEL
Described as above.

“Hypoxia inducible factor-1A (HIF1A) (from UniProt Q16665 1-826)”: the binding result in experiment [1] is given as “no binding”; in experiment [2], “binds”.
